This is one part of the list.
Columns and labels:
Experiment in all cases: glycan array binding signal (z-score within array); higher = stronger binding
Conditions in all cases: glycan notation: IUPAC condensed, linker removed
[1] = molecular target: Man(a1-3)[Man(a1-6)]Man(b1-4)GlcNAc(b1-4)GlcNAc
Method in brief: (§1)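 From the Consortium for Functional Glycomics database, 3228 arrays were curated, keeping only those whose protein sequence was available. Binding is given as a within-array Z-score averaged across arrays sharing a protein sequence and across linkers. Negative Z-scores can be read as non-binding.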

Man(b1-4)GlcNAc = molecular target: Man(b1-4)GlcNAc
Method in brief: as §1

Neu5Ac(a2-3)Gal = molecular target: Neu5Ac(a2-3)Gal
Method in brief: as §1

[2] = molecular target: Neu5Ac(a2-3)Gal(b1-3)GalNAc
Method in brief: as §1

[3] = molecular target: Neu5Ac(a2-3)Gal(b1-3)GalNAc(b1-3)Gal(a1-4)Gal(b1-4)Glc
Method in brief: as §1

[4] = molecular target: Neu5Ac(a2-3)Gal(b1-3)GalNAc(b1-3)Gal(b1-4)GlcNAc
Method in brief: as §1

[5] = molecular target: Neu5Ac(a2-3)Gal(b1-3)GalNAc(b1-4)[Neu5Ac(a2-3)]Gal(b1-4)Glc
Method in brief: as §1

[6] = molecular target: Neu5Ac(a2-3)Gal(b1-3)GalNAc6S
Method in brief: as §1

[7] = molecular target: Neu5Ac(a2-3)Gal(b1-3)GlcNAc
Method in brief: as §1

[8] = molecular target: Neu5Ac(a2-3)Gal(b1-3)GlcNAc(b1-3)Gal(b1-3)GlcNAc
Method in brief: as §1

[9] = molecular target: Neu5Ac(a2-3)Gal(b1-3)GlcNAc6S
Method in brief: as §1

[10] = molecular target: Neu5Ac(a2-3)Gal(b1-3)[Fuc(a1-4)]GlcNAc
Method in brief: as §1

[11] = molecular target: Neu5Ac(a2-3)Gal(b1-3)[Fuc(a1-4)]GlcNAc(b1-3)Gal(b1-4)[Fuc(a1-3)]GlcNAc
Method in brief: as §1

[12] = molecular target: Neu5Ac(a2-3)Gal(b1-3)[Neu5Ac(a2-3)Gal(b1-4)]GlcNAc
Method in brief: as §1

[13] = molecular target: Neu5Ac(a2-3)Gal(b1-3)[Neu5Ac(a2-6)]GalNAc
Method in brief: as §1

Neu5Ac(a2-3)Gal(b1-4)Glc = molecular target: Neu5Ac(a2-3)Gal(b1-4)Glc
Method in brief: as §1

[14] = molecular target: Neu5Ac(a2-3)Gal(b1-4)GlcNAc
Method in brief: as §1

[15] = molecular target: Neu5Ac(a2-3)Gal(b1-4)GlcNAc(b1-2)Man(a1-3)[Neu5Ac(a2-3)Gal(b1-4)GlcNAc(b1-2)Man(a1-6)]Man(b1-4)GlcNAc(b1-4)GlcNAc
Method in brief: as §1

[16] = molecular target: Neu5Ac(a2-3)Gal(b1-4)GlcNAc(b1-3)Gal(b1-3)GlcNAc
Method in brief: as §1

[17] = molecular target: Neu5Ac(a2-3)Gal(b1-4)GlcNAc(b1-3)Gal(b1-4)GlcNAc
Method in brief: as §1

[18] = molecular target: Neu5Ac(a2-3)Gal(b1-4)GlcNAc(b1-3)Gal(b1-4)GlcNAc(b1-3)Gal(b1-4)GlcNAc
Method in brief: as §1

[19] = molecular target: Neu5Ac(a2-3)Gal(b1-4)GlcNAc(b1-3)Gal(b1-4)[Fuc(a1-3)]GlcNAc
Method in brief: as §1

[20] = molecular target: Neu5Ac(a2-3)Gal(b1-4)GlcNAc(b1-6)[Gal(b1-3)]GalNAc
Method in brief: as §1

[21] = molecular target: Neu5Ac(a2-3)Gal(b1-4)GlcNAc6S
Method in brief: as §1

[22] = molecular target: Neu5Ac(a2-3)Gal(b1-4)[Fuc(a1-3)]GlcNAc
Method in brief: as §1

[23] = molecular target: Neu5Ac(a2-3)Gal(b1-4)[Fuc(a1-3)]GlcNAc(b1-3)Gal
Method in brief: as §1

[24] = molecular target: Neu5Ac(a2-3)Gal(b1-4)[Fuc(a1-3)]GlcNAc(b1-3)Gal(b1-4)GlcNAc
Method in brief: as §1

[25] = molecular target: Neu5Ac(a2-3)Gal(b1-4)[Fuc(a1-3)]GlcNAc(b1-3)Gal(b1-4)[Fuc(a1-3)]GlcNAc(b1-3)Gal(b1-4)[Fuc(a1-3)]GlcNAc
Method in brief: as §1

[26] = molecular target: Neu5Ac(a2-3)Gal(b1-4)[Fuc(a1-3)]GlcNAc6S
Method in brief: as §1

[27] = molecular target: Neu5Ac(a2-3)Gal6S(b1-4)GlcNAc
Method in brief: as §1

[28] = molecular target: Neu5Ac(a2-3)Gal6S(b1-4)[Fuc(a1-3)]GlcNAc
Method in brief: as §1

Neu5Ac(a2-3)GalNAc = molecular target: Neu5Ac(a2-3)GalNAc
Method in brief: as §1

[29] = molecular target: Neu5Ac(a2-3)GalNAc(b1-4)GlcNAc
Method in brief: as §1

[30] = molecular target: Neu5Ac(a2-3)[GalNAc(b1-4)]Gal(b1-4)Glc
Method in brief: as §1

[31] = molecular target: Neu5Ac(a2-3)[GalNAc(b1-4)]Gal(b1-4)GlcNAc
Method in brief: as §1

[32] = molecular target: Neu5Ac(a2-3)[Neu5Ac(a2-6)]GalNAc
Method in brief: as §1

Neu5Ac(a2-6)Gal = molecular target: Neu5Ac(a2-6)Gal
Method in brief: as §1

Neu5Ac(a2-6)Gal(b1-4)Glc = molecular target: Neu5Ac(a2-6)Gal(b1-4)Glc
Method in brief: as §1

[33] = molecular target: Neu5Ac(a2-6)Gal(b1-4)GlcNAc
Method in brief: as §1

[34] = molecular target: Neu5Ac(a2-6)Gal(b1-4)GlcNAc(b1-3)Gal(b1-4)GlcNAc
Method in brief: as §1

[35] = molecular target: Neu5Ac(a2-6)Gal(b1-4)GlcNAc(b1-3)Gal(b1-4)[Fuc(a1-3)]GlcNAc(b1-3)Gal(b1-4)[Fuc(a1-3)]GlcNAc
Method in brief: as §1

[36] = molecular target: Neu5Ac(a2-6)Gal(b1-4)GlcNAc6S
Method in brief: as §1

Neu5Ac(a2-6)GalNAc = molecular target: Neu5Ac(a2-6)GalNAc
Method in brief: as §1

[37] = molecular target: Neu5Ac(a2-6)GalNAc(b1-4)GlcNAc
Method in brief: as §1

Neu5Ac(a2-8)Neu5Ac = molecular target: Neu5Ac(a2-8)Neu5Ac
Method in brief: as §1

[38] = molecular target: Neu5Ac(a2-8)Neu5Ac(a2-3)Gal(b1-4)Glc
Method in brief: as §1

[39] = molecular target: Neu5Ac(a2-8)Neu5Ac(a2-3)[GalNAc(b1-4)]Gal(b1-4)Glc
Method in brief: as §1

[40] = molecular target: Neu5Ac(a2-8)Neu5Ac(a2-8)Neu5Ac
Method in brief: as §1

[41] = molecular target: Neu5Ac(a2-8)Neu5Ac(a2-8)Neu5Ac(a2-3)Gal(b1-4)Glc
Method in brief: as §1

[42] = molecular target: Neu5Ac(a2-8)Neu5Ac(a2-8)Neu5Ac(a2-3)[GalNAc(b1-4)]Gal(b1-4)Glc
Method in brief: as §1

[43] = molecular target: Neu5Ac(a2-8)Neu5Ac(a2-8)Neu5Ac(a2-8)Neu5Ac(a2-3)[GalNAc(b1-4)]Gal(b1-4)Glc
Method in brief: as §1

Neu5Ac(b1-6)GalNAc = molecular target: Neu5Ac(b1-6)GalNAc
Method in brief: as §1

[44] = molecular target: Neu5Ac(b2-6)Gal(b1-4)GlcNAc
Method in brief: as §1

[45] = molecular target: Neu5Ac9Ac(a2-6)Gal(b1-4)GlcNAc
Method in brief: as §1

[46] = molecular target: Neu5Gc(a2-3)Gal(b1-3)GlcNAc
Method in brief: as §1

[47] = molecular target: Neu5Gc(a2-3)Gal(b1-3)[Fuc(a1-4)]GlcNAc
Method in brief: as §1

Neu5Gc(a2-3)Gal(b1-4)Glc = molecular target: Neu5Gc(a2-3)Gal(b1-4)Glc
Method in brief: as §1

[48] = molecular target: Neu5Gc(a2-3)Gal(b1-4)GlcNAc
Method in brief: as §1

[49] = molecular target: Neu5Gc(a2-3)Gal(b1-4)[Fuc(a1-3)]GlcNAc
Method in brief: as §1

[50] = molecular target: Neu5Gc(a2-6)Gal(b1-4)GlcNAc
Method in brief: as §1

Neu5Gc(a2-6)GalNAc = molecular target: Neu5Gc(a2-6)GalNAc
Method in brief: as §1

B1: CTMLA2 (Anopheles gambiae), Q7Q7F8 (protein)
chain: MNLMITILIAVITVVRGDLSVPKTVDDILQQNPCLCPCKPFEEKEYFIPISRTSDWFGAVAYCHSVGMELAEVLNEDEARAMGEVIAEEESDSDDEFYWIGANDLGVQGTYRWALAGRPVLYSQWAAGEPNHARGENGQQPAERCVAVAMDKYEWNDFQCTQQKPFICQQFRKH
glycan array binding signal (z-score) [1]: -0.199 | glycan array binding signal (z-score) (Man(b1-4)GlcNAc): -0.189 | glycan array binding signal (z-score) (Neu5Ac(a2-3)Gal): -0.235 | glycan array binding signal (z-score) [2]: -0.51 | glycan array binding signal (z-score) [3]: -0.274 | glycan array binding signal (z-score) [4]: 0.102 | glycan array binding signal (z-score) [5]: -0.414 | glycan array binding signal (z-score) [6]: -0.357 | glycan array binding signal (z-score) [7]: -0.318 | glycan array binding signal (z-score) [8]: -0.281 | glycan array binding signal (z-score) [9]: -0.551 | glycan array binding signal (z-score) [10]: -0.437 | glycan array binding signal (z-score) [11]: -0.129 | glycan array binding signal (z-score) [12]: -0.137 | glycan array binding signal (z-score) [13]: 0.141 | glycan array binding signal (z-score) (Neu5Ac(a2-3)Gal(b1-4)Glc): -0.195 | glycan array binding signal (z-score) [14]: -0.377 | glycan array binding signal (z-score) [15]: 0.076 | glycan array binding signal (z-score) [16]: -0.485 | glycan array binding signal (z-score) [17]: 0.645 | glycan array binding signal (z-score) [18]: -0.656 | glycan array binding signal (z-score) [19]: 0.177 | glycan array binding signal (z-score) [20]: -0.355 | glycan array binding signal (z-score) [21]: -0.26 | glycan array binding signal (z-score) [22]: -0.478 | glycan array binding signal (z-score) [23]: -0.414 | glycan array binding signal (z-score) [24]: 0.213 | glycan array binding signal (z-score) [25]: -0.45 | glycan array binding signal (z-score) [26]: -0.172 | glycan array binding signal (z-score) [27]: 0.238 | glycan array binding signal (z-score) [28]: -0.274 | glycan array binding signal (z-score) (Neu5Ac(a2-3)GalNAc): 0.333 | glycan array binding signal (z-score) [29]: 0.579 | glycan array binding signal (z-score) [30]: -0.435 | glycan array binding signal (z-score) [31]: -0.181 | glycan array binding signal (z-score) [32]: 0.159 | glycan array binding signal (z-score) (Neu5Ac(a2-6)Gal): -0.594 | glycan array binding signal (z-score) (Neu5Ac(a2-6)Gal(b1-4)Glc): -0.539 | glycan array binding signal (z-score) [33]: -0.324 | glycan array binding signal (z-score) [34]: -0.452 | glycan array binding signal (z-score) [35]: -0.37 | glycan array binding signal (z-score) [36]: -0.415 | glycan array binding signal (z-score) (Neu5Ac(a2-6)GalNAc): -0.299 | glycan array binding signal (z-score) [37]: -0.284 | glycan array binding signal (z-score) (Neu5Ac(a2-8)Neu5Ac): -0.246 | glycan array binding signal (z-score) [38]: -0.35 | glycan array binding signal (z-score) [39]: -0.359 | glycan array binding signal (z-score) [40]: -0.28 | glycan array binding signal (z-score) [41]: -0.285 | glycan array binding signal (z-score) [42]: -0.353 | glycan array binding signal (z-score) [43]: 0.117 | glycan array binding signal (z-score) (Neu5Ac(b1-6)GalNAc): 0.126 | glycan array binding signal (z-score) [44]: -0.492 | glycan array binding signal (z-score) [45]: 0.488 | glycan array binding signal (z-score) [46]: -0.162 | glycan array binding signal (z-score) [47]: -0.268 | glycan array binding signal (z-score) (Neu5Gc(a2-3)Gal(b1-4)Glc): -0.485 | glycan array binding signal (z-score) [48]: -0.221 | glycan array binding signal (z-score) [49]: -0.437 | glycan array binding signal (z-score) [50]: -0.479 | glycan array binding signal (z-score) (Neu5Gc(a2-6)GalNAc): -0.317
